Patent US12555809B2, “Additives for fluorenone/fluorenol based aqueous redox flow batteries” (Battelle Memorial Institute, priority 2021, dated 2026)

Legend:
[1] = Extended battery cycling stability test; conditions: for capacity decay rate: close to saturated anolyte with β-CD additive/1 M NaOH, ferro/ferricyanide catholyte, over half year (27S4CFL), 160 days (4C7SFL); for VE decrease: same extended cycling with β-CD additive
[2] = Flow battery rate capability test with additives

Structure (SMILES): O=C(O)c1cccc2c1-c1ccc(S(=O)(=O)[O-])cc1C2=O.[K+] [4C7SFL, 4-carboxylate-7-sulfonate fluorenone/fluorenol]
- capacity decay rate [1]: 0.020 %/day
- VE decrease [1]: around 5%

Structure (SMILES): O=C(O)c1cc(S(=O)(=O)O)cc2c1-c1ccc(S(=O)(=O)O)cc1C2=O [27S4CFL, 2,7-sulfonate-4-carboxylate fluorenone]
- capacity decay rate [1]: 0.025 %/day
- VE decrease [1]: 9%

Structure (SMILES): OC[C@@H](O)[C@@H](O)[C@H](O)[C@@H](O)CO [sorbitol, D-sorbitol]
- discharge capacity remained compared to the 5 mA/cm^2 test ([2]; 80 mA/cm^2): 81.4%
- discharge capacity remained compared to the 5 mA/cm^2 test ([2]; 100 mA/cm^2): 68.4%
